The record followed here is article PMC3089618.

Amino acid sequences for entries named in this document (tags omitted). A change or cut given only in a name is not applied to a line headed by its entry. Residues count along the entry.
UniProt P53350: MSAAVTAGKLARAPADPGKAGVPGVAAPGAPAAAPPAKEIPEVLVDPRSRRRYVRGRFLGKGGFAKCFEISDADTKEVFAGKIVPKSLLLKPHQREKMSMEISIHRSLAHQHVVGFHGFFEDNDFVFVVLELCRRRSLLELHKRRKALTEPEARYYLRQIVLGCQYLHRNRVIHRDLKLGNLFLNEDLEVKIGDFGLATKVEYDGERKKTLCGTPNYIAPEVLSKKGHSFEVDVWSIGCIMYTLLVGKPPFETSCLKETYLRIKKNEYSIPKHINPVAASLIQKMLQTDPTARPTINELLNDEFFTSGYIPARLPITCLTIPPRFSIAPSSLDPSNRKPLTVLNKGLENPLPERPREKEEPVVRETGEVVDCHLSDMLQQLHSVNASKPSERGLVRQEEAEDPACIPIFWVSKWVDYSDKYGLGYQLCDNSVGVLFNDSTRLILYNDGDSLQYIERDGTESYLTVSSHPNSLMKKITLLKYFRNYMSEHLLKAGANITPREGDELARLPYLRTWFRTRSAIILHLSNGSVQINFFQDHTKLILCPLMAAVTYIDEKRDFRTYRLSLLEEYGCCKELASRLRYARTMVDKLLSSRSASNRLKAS
UniProt Q9UNS1: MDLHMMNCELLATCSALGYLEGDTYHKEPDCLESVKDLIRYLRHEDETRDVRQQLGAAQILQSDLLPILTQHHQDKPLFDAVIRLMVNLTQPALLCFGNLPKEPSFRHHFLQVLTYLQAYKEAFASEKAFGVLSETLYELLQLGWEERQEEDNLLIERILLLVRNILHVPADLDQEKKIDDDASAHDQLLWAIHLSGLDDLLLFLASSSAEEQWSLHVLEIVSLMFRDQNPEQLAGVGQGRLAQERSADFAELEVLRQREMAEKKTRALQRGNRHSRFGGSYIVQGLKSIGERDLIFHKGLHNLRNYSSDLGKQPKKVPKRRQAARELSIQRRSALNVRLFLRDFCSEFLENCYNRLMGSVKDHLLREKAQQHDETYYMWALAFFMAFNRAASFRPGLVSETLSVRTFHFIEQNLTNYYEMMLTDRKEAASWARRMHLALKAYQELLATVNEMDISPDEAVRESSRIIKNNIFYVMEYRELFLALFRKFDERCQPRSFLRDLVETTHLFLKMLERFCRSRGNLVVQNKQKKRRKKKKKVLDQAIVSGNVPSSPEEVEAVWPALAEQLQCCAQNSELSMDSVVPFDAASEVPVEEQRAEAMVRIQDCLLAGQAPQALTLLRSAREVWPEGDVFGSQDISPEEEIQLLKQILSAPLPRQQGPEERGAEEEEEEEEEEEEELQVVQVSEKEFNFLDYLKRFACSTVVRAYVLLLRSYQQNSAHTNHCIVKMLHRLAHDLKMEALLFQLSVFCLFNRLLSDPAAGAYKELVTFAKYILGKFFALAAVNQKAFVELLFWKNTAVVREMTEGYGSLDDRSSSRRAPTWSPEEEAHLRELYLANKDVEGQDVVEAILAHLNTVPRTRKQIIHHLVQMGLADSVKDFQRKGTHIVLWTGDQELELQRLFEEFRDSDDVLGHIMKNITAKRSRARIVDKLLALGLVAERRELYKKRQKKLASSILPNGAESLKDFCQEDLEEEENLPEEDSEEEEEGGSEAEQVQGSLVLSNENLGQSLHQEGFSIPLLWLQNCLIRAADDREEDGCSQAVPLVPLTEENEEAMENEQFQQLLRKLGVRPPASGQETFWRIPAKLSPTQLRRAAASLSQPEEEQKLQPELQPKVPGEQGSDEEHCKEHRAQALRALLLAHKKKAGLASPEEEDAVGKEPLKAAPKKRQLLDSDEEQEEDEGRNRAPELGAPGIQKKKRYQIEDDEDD
FLAG-Tim (Δ1000–1208): residues 1-999 of Q9UNS1
UniProt Q96GD4: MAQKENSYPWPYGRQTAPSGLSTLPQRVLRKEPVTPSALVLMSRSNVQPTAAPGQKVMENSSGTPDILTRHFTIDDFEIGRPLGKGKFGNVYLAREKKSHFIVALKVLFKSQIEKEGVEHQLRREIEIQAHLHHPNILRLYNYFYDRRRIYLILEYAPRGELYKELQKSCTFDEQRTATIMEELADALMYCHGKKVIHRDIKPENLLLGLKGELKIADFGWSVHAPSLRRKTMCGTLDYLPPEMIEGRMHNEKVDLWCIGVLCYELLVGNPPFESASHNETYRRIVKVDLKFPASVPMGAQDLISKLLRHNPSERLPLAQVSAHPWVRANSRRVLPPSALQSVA

Assay [1] has as its target GST-tagged Plk1 from E. coli (UniProt P53350). Description: pull-down; GST pull-down: purified GST or GST-Plk1 as bait, baculovirus expressed His-Tim or His-Rap1 as prey, bound proteins detected by anti-His Western blot; both purified.
The target of assay [2] is FLAG-tagged Tim protein (human Timeless), wild type (human) (UniProt Q9UNS1). Description: co-IP; FLAG-Tim wt or deletion mutants transfected in 293 cells, FLAG IP, Western blot for endogenous Plk1. Background: In western blotting, separated proteins are transferred to a membrane and probed.
Assay [3] has as its target FLAG-Tim (Δ1000–1208) (human) (UniProt Q9UNS1). The assay is described as above.
The target of assay [4] is endogenous Tim, HCT116 cells (human (endogenous in HCT116)) (UniProt Q9UNS1). The experiment in a line: co-IP; HCT116 cells synchronised by double thymidine block and release (0, 2, 4, 6, 8 hrs), IP with anti-Tim or control IgG, or reverse IP with anti-Plk1 or anti-Aurora A, Western blot.
The target in assay [5] is endogenous Tim, Raji nuclear extract (human (endogenous in Raji)) (UniProt Q9UNS1). The experiment in a line: co-IP; asynchronous Raji nuclear extracts, IP with anti-Tim or control IgG, treated with 100 µg/ml DNase I for 30 min or buffer, extensive washing, Western blot.
For assay [6], the target named is T1, endogenous Aurora A, HCT116 cells (human (endogenous in HCT116)) (UniProt O14965).
T1 sequence: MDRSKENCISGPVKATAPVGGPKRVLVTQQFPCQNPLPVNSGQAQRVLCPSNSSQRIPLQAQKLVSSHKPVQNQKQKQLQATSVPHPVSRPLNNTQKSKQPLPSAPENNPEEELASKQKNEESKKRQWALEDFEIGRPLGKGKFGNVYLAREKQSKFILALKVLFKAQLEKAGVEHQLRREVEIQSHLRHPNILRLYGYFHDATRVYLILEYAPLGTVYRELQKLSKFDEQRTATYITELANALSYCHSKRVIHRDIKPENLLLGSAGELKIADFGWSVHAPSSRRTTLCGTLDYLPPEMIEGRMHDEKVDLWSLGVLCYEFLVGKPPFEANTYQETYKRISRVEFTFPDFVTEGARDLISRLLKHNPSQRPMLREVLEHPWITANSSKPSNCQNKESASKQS
The experiment in a line: co-IP; HCT116 cells synchronised by double thymidine block and release (0, 2, 4, 6, 8 hrs), IP with anti-Tim or control IgG, or reverse IP with anti-Plk1 or anti-Aurora A, Western blot.

In assay [7] the target is endogenous Plk1, HCT116 cells (human (endogenous in HCT116)) (UniProt P53350). The description is as above.
Assay [8] deals with endogenous Tim, Raji nuclear extract (human (endogenous in Raji)) (UniProt Q9UNS1). The experiment in a line: co-IP; asynchronous Raji nuclear extracts, IP with anti-Tim or control IgG, treated with 100 µg/ml DNase I for 30 min or buffer, extensive washing, Western blot. The source holds these as a separate data set.

Read-outs that look alike come from different tables or passages of the source. These are yes or no findings as the source states them, for the method shown. For some of these results: Binding seen in cells or lysates may run through a third protein. Some entries that bind do so weakly or less than the wild type.

In the case of “His-tagged Tim protein from baculovirus (from UniProt Q9UNS1 1-1208)”, in assay [1], the binding entry was “binds”.

As to “Polo-like kinase 1 (Plk1), endogenous in 293 cells (from UniProt P53350 1-603) (enzyme)”, the binding entry in assay [2] and in assay [3] was “binds” throughout.

For “endogenous Aurora B, HCT116 cells (from UniProt Q96GD4 1-344) (enzyme)”, the binding result in assay [4] is reported as “binds”.

With “endogenous Plk1, HCT116 cells (from UniProt P53350 1-603) (enzyme)”, the binding entry in assay [4] is “binds”.

Consider “endogenous Plk1, Raji nuclear extract (from UniProt P53350 1-603) (enzyme)”, for which the binding entry in assay [5] is given as “binds”.

Turning to “endogenous Tim, HCT116 cells (from UniProt Q9UNS1 1-1208)”, the binding entry in assay [6] and in assay [7] was “binds” throughout.

B1: endogenous Aurora A, Raji nuclear extract (enzyme, UniProt O14965 1-403)
chain: MDRSKENCISGPVKATAPVGGPKRVLVTQQFPCQNPLPVNSGQAQRVLCPSNSSQRIPLQAQKLVSSHKPVQNQKQKQLQATSVPHPVSRPLNNTQKSKQPLPSAPENNPEEELASKQKNEESKKRQWALEDFEIGRPLGKGKFGNVYLAREKQSKFILALKVLFKAQLEKAGVEHQLRREVEIQSHLRHPNILRLYGYFHDATRVYLILEYAPLGTVYRELQKLSKFDEQRTATYITELANALSYCHSKRVIHRDIKPENLLLGSAGELKIADFGWSVHAPSSRRTTLCGTLDYLPPEMIEGRMHDEKVDLWSLGVLCYEFLVGKPPFEANTYQETYKRISRVEFTFPDFVTEGARDLISRLLKHNPSQRPMLREVLEHPWITANSSKPSNCQNKESASKQS
Regarding B1, the binding entry in assay [8] was “binds”.

B2: endogenous Aurora A, HCT116 cells (enzyme, UniProt O14965 1-403)
chain: MDRSKENCISGPVKATAPVGGPKRVLVTQQFPCQNPLPVNSGQAQRVLCPSNSSQRIPLQAQKLVSSHKPVQNQKQKQLQATSVPHPVSRPLNNTQKSKQPLPSAPENNPEEELASKQKNEESKKRQWALEDFEIGRPLGKGKFGNVYLAREKQSKFILALKVLFKAQLEKAGVEHQLRREVEIQSHLRHPNILRLYGYFHDATRVYLILEYAPLGTVYRELQKLSKFDEQRTATYITELANALSYCHSKRVIHRDIKPENLLLGSAGELKIADFGWSVHAPSSRRTTLCGTLDYLPPEMIEGRMHDEKVDLWSLGVLCYEFLVGKPPFEANTYQETYKRISRVEFTFPDFVTEGARDLISRLLKHNPSQRPMLREVLEHPWITANSSKPSNCQNKESASKQS
As to B2, the binding result in assay [4] was “binds”.
